Laboratory results: PubChem BioAssay AID504444 (National Center for Advancing Translational Sciences (NCATS), 2011)
Out of some 360,000 compounds screened, about 7,500 (2.1%) were called active. The shares of active, inactive and inconclusive entries below differ from those in the screen. The call rests on the fitted dose curve; in most records, active means well fitted inhibition curve with a large enough effect; inconclusive means small, poorly fitted or top-dose-only effect, or effect the other way; inactive means flat fitted curve, though single readings scatter. Potencies of inconclusive entries are doubtful fits and often do not repeat.

Assay: Nrf2 qHTS screen for inhibitors; further: nearly all actives have a fitted effect of over 60% in size
Details: A549 ARE-Fluc reporter, luciferase luminescence, 18-24 h; activity change, negative = inhibition: at 46 µM (top of the series)
Outline: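 Concentration-response testing used A549 ARE_Fluc cells at 5000 cells/well. Following an 18-24 h compound incubation, viability was read by fluorescence (Ex 405/Em 525) and luciferase output by luminescence.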
On the % scale 0 is the no-effect control and ±100 the full control effect; potency means the concentration at half of the fitted maximal effect.

| SMILES | activity change, negative = inhibition | Potency |
| --- | --- | --- |
| O=c1[nH]oc2c1CCNC2 | inactive: 4.02% | – |
| C[C@]12CC[C@H]3[C@@H](CCC4=CC(=O)CC[C@@]43C)[C@@H]1CC[C@@H]2C(=O)CO | – | inconclusive: 25.9 µM [falling, partial curve] |
| O=C1c2ccccc2-c2cc3ccccc3cc21 | – | inconclusive: 25.9 µM [activator, single point] |
| COc1ccc(CCCc2nnc(SCC(=O)Nc3ccc(C)c(C)c3)o2)cc1 | – | inconclusive: 16.4 µM [falling, partial curve, poor fit] |
| CCN(CC)c1ccc(/C=C2/C(=O)NC(=O)N(Cc3ccco3)C2=O)cc1 | inactive: -2.48% | – |
| Cc1ccc(CSc2ncccc2C(=O)O)cc1 | – | inconclusive: 29.1 µM [activator, single point] |
| COc1ccc(-[n+]2c(-c3ccccc3)cc(-c3ccccc3)cc2-c2ccccc2)cc1 | – | inconclusive: 18.4 µM [falling, single point] |
| CCc1ccc(OCCCN=C(C)c2c(O)n(C)c(=O)n(C)c2=O)cc1 | – | inconclusive: 29.1 µM [falling, single point] |
| COc1cc(C2c3cc4c(c(O)c3CC3COC(=O)C32)OCO4)cc(OC)c1O (stereo not drawn) | – | inconclusive: 5.8 µM [activator, partial curve] |
| CC(C)(C)c1cc(C=C(C#N)C#N)cc(C(C)(C)C)c1O | – | active: 0.651 µM |
| Cc1ccc(C)c(S(=O)(=O)c2nnn3c2nc(N2CCCC2)c2sccc23)c1 | – | inconclusive: 32.6 µM [falling, single point] |
| Cc1cc(C(C#N)c2ccc(Cl)cc2)c(Cl)cc1NC(=O)c1cc(I)cc(I)c1O (stereo not drawn) | – | inconclusive: 20.6 µM [falling, single point] |
| CC(=O)c1ccc(NC(=O)c2sc3nc4c(cc3c2N)N2CCC4CC2)cc1 | – | inconclusive: 20.6 µM [falling, single point] |
| Cc1ccc(NP(=O)(Oc2ccccc2F)Oc2ccccc2F)cc1C | – | inconclusive: 29.1 µM [falling, single point] |
| O=C(O)c1nn(Cc2ccc(Cl)cc2Cl)c2ccccc12 | – | inconclusive: 16.4 µM [falling, partial curve, poor fit] |
| CCn1nc(-c2ccccc2)nc2c(=O)n(C)c(=O)nc1-2 | – | active: 2.91 µM |
| CCOC(=O)C1(CCc2ccccc2)CCN(Cc2cccc3cnccc23)CC1 | – | inconclusive: 29.1 µM [falling, single point] |
| CCCCn1c(=O)c(C=Nc2cc([N+](=O)[O-])ccc2OC)c(O)n(CCCCl)c1=O | inactive: 2.07% | – |
| Cc1c(OC(C(=O)O)c2ccccc2)ccc2c1oc(=O)c1ccccc12 (stereo not drawn) | – | inconclusive: 6.51 µM [activator, partial curve, poor fit] |
| O=C(Cn1cc(C=C2C(=O)NC(=O)NC2=O)c2ccccc21)NCC1CCCO1 (stereo not drawn) | inactive: 2.17% | – |
| O=C(COc1ccccc1)N1CCN(CCN2C(=O)c3cccc4cccc(c34)C2=O)CC1 | – | inconclusive: 13 µM [falling, partial curve] |

| SMILES | activity change, negative = inhibition | Potency |
| --- | --- | --- |
| CN1C(=O)C(C2c3ccccc3C(=O)N2Cc2ccc([N+](=O)[O-])cc2)C(=O)N(C)C1=O (stereo not drawn) | – | inconclusive: 29.1 µM [activator, single point] |
| CCCCN1C(=O)NC(=O)C2(Cc3c(nc4c(C)cccn4c3=O)N3CCc4ccccc4C32)C1=O (stereo not drawn) | – | inconclusive: 23.1 µM [falling, single point] |
| CCCCCCn1c(=O)c(C(=O)Nc2cccc(C)n2)c(O)c2ccccc21 | inactive: 7.09% | – |
| C[C@@H]1C[C@@H]([C@H](O)CC2CC(=O)NC(=O)C2)C(=O)[C@@H](C)C1 | – | active: 0.58 µM |
| Cc1sc2ncnc(N3CCC(C(=O)Nc4ccc(C#N)c(Cl)c4)CC3)c2c1C | – | inconclusive: 18.4 µM [falling, single point] |
| Nc1ccccc1C(=O)OCc1ccc([N+](=O)[O-])cc1 | – | inconclusive: 11.6 µM [activator, partial curve] |
| COC(=O)C1=C(c2ccc(Cl)c(C(F)(F)F)c2)C[C@@H]2CC[C@H]1N2C(=O)NCCOc1ccccc1Cl | – | active: 23.1 µM |
| COC(=O)C1=C(c2ccc(-c3ccccc3)c(F)c2)C[C@@H]2CC[C@H]1N2C(=O)NCCOc1ccc(OC)cc1 | – | active: 16.4 µM |
| O=[N+]([O-])c1ccc(C(=Nc2ccccc2)N2CC2)cc1 | – | inconclusive: 29.1 µM [activator, single point] |
| COc1cc(C2c3cc4c(c(O)c3CC3COC(=O)C32)OCO4)cc(OC)c1OC (stereo not drawn) | – | inconclusive: 8.2 µM [activator, partial curve] |
| Cc1ccccc1-n1c(O)c(C(c2ccncc2)c2c(O)n(-c3ccccc3C)c(=O)[nH]c2=O)c(=O)[nH]c1=O | – | inactive |
| O=c1c2ccccc2nc(/C=C\c2cccc(Br)c2)n1-c1ccc(O)cc1 | inactive: 4.07% | – |
| NC(N)=Nc1ccc2[nH]c3c(c2c1)C[C@@]1(O)[C@H]2Cc4ccc(O)c5c4[C@@]1(CCN2CC1CC1)[C@H]3O5 | – | inactive |
| CCOP(=O)(OCC)c1ccc(OP(=O)(c2cccc([N+](=O)[O-])c2)c2cccc([N+](=O)[O-])c2)cc1 | inactive: -0.31% | – |
| CN1C(=O)c2ccccc2Sc2ccc(C(=O)N3CCC4(CC3)OCCO4)cc21 | inactive: -0.879% | – |
| CCOC(=O)CC(SP1(=S)OCC2(CCCCC2)CO1)C(=O)OCC (stereo not drawn) | inactive: -0.156% | – |
| Cc1ccc(S(=O)(=O)Nc2ccc3ncccc3c2[N+](=O)[O-])cc1 | – | inconclusive: 14.6 µM [falling, single point] |
| COc1ccc2c(c1)C(NC(C)=O)CCc1cc(OC)c(OC)c(OC)c1-2 (stereo not drawn) | – | inconclusive: 0.326 µM [activator, full curve] |
| CC(=O)O[C@@]12CO[C@@H]1C[C@H](O)[C@@]1(C)C(=O)[C@H](O)C3=C(C)[C@@H](OC(=O)[C@H](O)[C@@H](NC(=O)c4ccccc4)c4ccccc4)C[C@@](O)([C@@H](OC(=O)c4ccccc4)C12)C3(C)C (stereo partly drawn) | – | inconclusive: 2.06 µM [activator, partial curve, poor fit] |
| Cc1ccccc1-c1nc(CS(=O)CC(=O)N2CCC3(CC2)OCCO3)c(C)o1 (stereo not drawn) | inactive: -27.8% | – |
| COc1ccc(NP(=O)(Oc2ccccc2OC)Oc2ccccc2OC)cc1 | – | inconclusive: 8.2 µM [falling, partial curve] |

| SMILES | activity change, negative = inhibition | Potency |
| --- | --- | --- |
| COc1cccc(Oc2coc3cc(OC(=O)N(C)C)ccc3c2=O)c1 | – | inconclusive: 29.1 µM [falling, single point] |
| CCN(CC)C(=O)c1ccc(NC(=O)c2cc(S(=O)(=O)N3CCCCCC3)ccc2OC)cc1 | – | inconclusive: 20.6 µM [falling, single point] |
| CCOc1ccc(CN2C(=O)c3ccccc3Sc3ccc(C(=O)N4CCC5(CC4)OCCO5)cc32)cc1 | – | inconclusive: 29.1 µM [falling, single point] |
| O=C1NC(=O)C2(CCCc3ccc(N(CCCl)CCCl)cc32)N1 (stereo not drawn) | – | inconclusive: 3.66 µM [falling, full curve] |
| COC(=O)C1=C(c2ccc(F)cc2OCc2ccccc2)C[C@@H]2CC[C@H]1N2C(=O)NCc1ccc2[nH]ccc2c1 | – | inconclusive: 20.6 µM [falling, single point] |
| CC(=NCCC1=CCCCC1)c1c(O)n(C)c(=O)n(C)c1=O | – | inconclusive: 2.59 µM [falling, partial curve, poor fit] |
| CCN(CC)S(=O)(=O)c1ccc2c(c1)c(=O)c(C(=O)NCc1ccccc1OC)cn2C | – | inconclusive: 29.1 µM [activator, single point] |
| COC(=O)C1=C(c2ccc(F)cc2OCc2ccccc2)C[C@@H]2CC[C@H]1N2C(=O)N1CCC(O)(c2ccc(Cl)cc2)CC1 | – | inconclusive: 18.4 µM [falling, single point] |
| N#CCCn1cc(C(=O)NCc2ccccc2)c(-c2ccccc2)n1 | – | inconclusive: 0.517 µM [falling, full curve, poor fit] |
| CCC(=NCC1CCCO1)c1c(O)n(-c2ccc(OC)cc2)c(=O)[nH]c1=O (stereo not drawn) | – | inconclusive: 16.4 µM [activator, partial curve] |
| O=C(Nc1ncc(Cc2ccccc2)s1)C1=NCCN1 | – | inconclusive: 20.6 µM [activator, single point] |
| Cc1nc2ccc(N3CCN(C)CC3)cc2nc1C | – | inconclusive: 20.6 µM [activator, single point] |
| COc1cc2nc(CN3CC=C(c4ccccc4)CC3)[nH]c(=O)c2cc1OC | – | active: 2.31 µM |
| COc1ccccc1-n1c(-c2ccccc2)nc2ccccc2c1=O | inactive: -8.96% | – |
| O=C(NCc1ccc(Cl)cc1)C1CCN(C(=O)c2cnn(-c3ccccc3)c2-n2cccc2)CC1 | – | inconclusive: 29.1 µM [falling, single point] |
| O=C(c1cncc(Br)c1)N1CCN(S(=O)(=O)c2ccc3ccccc3c2)CC1 | – | inconclusive: 25.9 µM [falling, single point] |
| CCN1C(=O)C(=C/C=C/c2ccco2)C(=O)N(CC)C1=S | inactive: -4.14% | – |
| COc1ccc(N=Cc2c(O)n(Cc3ccccc3)c(=S)[nH]c2=O)c(OC)c1 | – | inconclusive: 2.06 µM [activator, full curve, poor fit] |
| CC(=O)N1c2ccc(S(=O)(=O)N3CCCC(C(=O)Nc4cc(C)cc(C)c4)C3)cc2CC1C (stereo not drawn) | – | inconclusive: 23.1 µM [falling, single point] |
| Cc1ccc(C)c(CN2CCC(n3nnc4cc(F)ccc43)CC2)c1 | – | inconclusive: 29.1 µM [falling, single point] |
| c1ccc2cc(C3N4CCCN34)ccc2c1 (stereo not drawn) | – | inconclusive: 16.4 µM [activator, partial curve, poor fit] |
